Laboratory results as given in US20140179595A1.
No constants are given. Whether binding was seen depends on the method and setting. Some binding calls cover weakened binding; strength is not graded here.

Biological target: low density lipoprotein receptor (LDLR) (UniProt P01130)
Test: competition with DiI-LDL on HEK293T cells, flow cytometry

B1: human apoE dual-domain peptide hEP (peptide)
peptide: EELRVRLASHLRKLRKRLLRDADDLQKRLAVYEEQAQQIRLQAEAFQARLKSWFEPLVEDM
- binding: binds
